Experimental data as given in PubChem BioAssay AID1487 (National Center for Advancing Translational Sciences (NCATS), 2009).
Some of the results follow. These are further read-outs of the screen, such as a control signal, another cell line or another target. No call is given for them. Most of these compounds were active or inconclusive in the main read-out, so they are no random draw. Potencies come from curve fits of mixed quality, noted in brackets.

Experiment: qHTS Assay for Modulators of Lamin A Splicing
Conditions: HeLa LMNA splicing GFP/RFP minigene ratio, 48 h
Method in brief: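 S3 HeLa cells stably expressing lamin A-EGFP splicing minigene plus DsRed2, 600 cells/well, 48 h compound exposure at 37C. Laser-scanning cytometry; analysed as GFP (500-530 nm)/RFP (575-640 nm) total intensity ratio; 0.5% DMSO vehicle.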

[1] = measured here: GFP splicing reporter channel
[2] = measured here: RFP viability control channel

| SMILES | AC50 [1] | AC50 [2] |
| --- | --- | --- |
| O=C1OC(c2ccccc2)=N/C1=C\C=C\c1ccco1 | 15.8 µM [falling, single point] | 0.00447 µM [falling, full curve, poor fit] |
| COc1ccccc1OCCC(=O)Nc1cccc(S(=O)(=O)N2CCCCC2)c1 | 2.51 µM [rising, partial curve] | 10 µM [rising, partial curve] |
| Cc1cc(C)cc(NC(=S)NC2CC3CCCC(C2)N3C2CC2)c1 (stereo not given) | 28.2 µM [falling, single point] |  |
| COc1ccc(Nc2cc(C)nc(-n3nc(C)cc3C)n2)cc1Cl | 3.98 µM [falling, full curve, poor fit] |  |
| COc1c(C)c2c(c(O)c1CC=C(C)CCC(=O)OCCN1CCOCC1)C(=O)OC2 | 0.631 µM [falling, full curve] | 0.562 µM [rising, full curve] |
| Cc1cccc(-c2nnc3n2N=C(c2ccccc2Br)CS3)c1 | 11.2 µM [rising, single point] | 11.2 µM [rising, partial curve] |
| CCc1ccc(-c2cc(C(F)(F)F)n3nc(C(=O)Nc4c(C)nn(Cc5ccc(F)cc5)c4C)cc3n2)s1 | 35.5 µM [rising, single point] | 14.1 µM [rising, partial curve] |
| COC(=O)C1=C(C)NC(C)=C(C(=O)OC)C1/C=C/c1ccccc1 |  | 35.5 µM [rising, single point] |
| CCC(Sc1nc2cc3c(cc2c(=O)n1Cc1ccco1)OCO3)C(=O)Nc1cccc(OC)c1 (stereo not given) |  | 20 µM [falling, partial curve, poor fit] |
| CCCCc1c(C)nc2c(OC)cccc2c1SCCC(=O)O | 7.94 µM [rising, partial curve] | 10 µM [rising, partial curve, poor fit] |
| O=S(=O)(Nc1nc2c(s1)CCCC2)c1ccc(Br)cc1 |  | 25.1 µM [rising, single point] |
| O=C(Nc1ccc(Cc2ccncc2)cc1)c1ccc(N2CCOCC2)c([N+](=O)[O-])c1 |  | 35.5 µM [rising, single point] |
| COc1cccc(NC(=O)CSc2nc3ccc(NC(=O)c4ccco4)cc3s2)c1 |  | 22.4 µM [rising, partial curve] |
| Cc1ccc(SC(C)C(=O)Nc2cccc(N(C)S(C)(=O)=O)c2)cc1 (stereo not given) |  | 11.2 µM [rising, single point] |
| CCNC(=O)c1ccc(CSc2ccc(Cl)cc2)cc1 |  | 31.6 µM [rising, single point] |
| CC(=O)Nc1ccc(OCC(O)Cn2c3ccccc3c3ccccc32)cc1 (stereo not given) |  | 35.5 µM [rising, single point] |
| COc1cccc(CC(=O)N2CCc3nc(-c4ccc(OC)cc4C)c4c(c3C2)CO[C@@H](c2ccccc2)C4)c1 |  | 6.31 µM [rising, single point] |
| Cc1sc(NC(=S)NC(=O)c2ccc(C(C)(C)C)cc2)c(C#N)c1C |  | 5.01 µM [rising, partial curve] |

| SMILES | AC50 [1] | AC50 [2] |
| --- | --- | --- |
| CCOC(=O)c1c(-c2cccc(C)c2)csc1NC(=O)C1CC=CCC1C(=O)O (stereo not given) | 15.8 µM [rising, single point] | 12.6 µM [rising, single point] |
| COc1cc(C2C3=C(Nc4ncnn42)c2ccccc2CC3)cc(OC)c1OC (stereo not given) | 2.51 µM [rising, full curve, poor fit] |  |
| COc1ccc(NC(=O)c2sccc2-n2cccc2)cc1 | 25.1 µM [falling, single point] |  |
| C=CCn1c(COc2ccccc2)nnc1SC(C)C(=O)N/N=C/c1cc(Cl)ccc1O (stereo not given) |  | 17.8 µM [rising, single point] |
| Cc1cc(C(=O)N[C@H](c2ccccc2)[C@@]2(C)C[C@@H]2[C@@H](C)C(=O)Nc2ccc3ccccc3c2)n(C)n1 |  | 14.1 µM [rising, single point] |
| O=C(O)[C@@H]1C[C@H](C(=O)O)N1 | 0.794 µM [falling, full curve, poor fit] | 12.6 µM [falling, partial curve, poor fit] |
| COc1ccc(-c2cc(OC)c3ccccc3n2)cc1 | 4.47 µM [rising, partial curve, poor fit] | 10 µM [rising, partial curve] |
| CCC(C)N1C(=O)S/C(=C/c2ccc(N3CCOCC3)cc2C)C1=O (stereo not given) | 12.6 µM [rising, single point] | 15.8 µM [rising, single point] |
| Cc1nc(-c2cccc(S(=O)(=O)N3CC(C)OC(C)C3)c2)cs1 (stereo not given) | 0.0794 µM [rising, single point] | 0.0891 µM [rising, single point] |
| O=C(CSc1ccccc1)NCc1ccc2c(c1)CCN2C(=O)c1ccc(F)cc1 | 3.98 µM [rising, full curve] | 8.91 µM [rising, partial curve] |
| CC(C)(C)n1cnc(C(N)=O)c1N |  | 1 µM [falling, partial curve] |
| CC(C)=CCN1CCN(Cc2c(C)nn(C)c2Cl)CC1CCO (stereo not given) | 35.5 µM [rising, single point] |  |
| N=c1c2c3c(sc2ncn1N)CCCCC3 |  | 35.5 µM [rising, single point] |
| CCc1ccc(CNC(=O)CCCN2C(=O)c3cccnc3Oc3ccc(Cl)cc32)cc1 |  | 0.01 µM [rising, full curve, poor fit] |
| O=C(COc1ccccc1)Nc1nnc(S(=O)(=O)N2CCCCCC2)s1 |  | 0.0398 µM [falling, full curve, poor fit] |
| COc1ccc(C(O)C(CN2CCOCC2)c2ccccc2)cc1F (stereo not given) |  | 0.0794 µM [falling, full curve, poor fit] |
| COc1ccc(OCCCC(=O)Nc2cccc(C(C)=O)c2)cc1 | 22.4 µM [rising, partial curve, poor fit] | 22.4 µM [rising, partial curve, poor fit] |
| CCOC(=O)C1=C(c2ccccc2)N=c2s/c(=C\c3cccc(O)c3)c(=O)n2C1c1cccs1 (stereo not given) | 35.5 µM [falling, single point] | 8.91 µM [falling, partial curve] |

Full records, quoted from the list:
N=c1c2c3c(sc2ncn1N)CCCCC3 is listed as AC50 [2]: 35.5 µM [rising, single point]
COc1ccc(C(O)C(CN2CCOCC2)c2ccccc2)cc1F (stereo not given) is listed as AC50 [2]: 0.0794 µM [falling, full curve, poor fit]
